# Assay results taken from US20250290131.
# For at least one entry, the source does not settle the construct or the ends of the probe.
# Test system: Nb.BssSI
# Assay: enzyme reaction in vitro
# Conditions: nicking followed by nick translation and QD labeling; NEB buffer 2, 16 C; purified recombinant protein; protein details: New England Biolabs; variant of HeLa genomic DNA
sequence,measurement,value
CTCGTG (double strand) [Nb.BssSI site in HeLa genomic DNA],activity on this sequence,active
